Assay results taken from PMC3917433.
No constants are given. Whether binding was seen depends on the method and setting. Some binding calls cover weakened binding; strength is not graded here.

The chains behind the UniProt entries cited, without tags or fusion partners. Where a name states a change or a piece, a line headed by the entry shows the natural chain unless it says otherwise. A line that says so, or that is headed by a name, gives the form on record, which may keep a tag or linker.
PRP40 pre-mRNA processing factor 40 B (PRPF40B) (Q6NWY9, form named): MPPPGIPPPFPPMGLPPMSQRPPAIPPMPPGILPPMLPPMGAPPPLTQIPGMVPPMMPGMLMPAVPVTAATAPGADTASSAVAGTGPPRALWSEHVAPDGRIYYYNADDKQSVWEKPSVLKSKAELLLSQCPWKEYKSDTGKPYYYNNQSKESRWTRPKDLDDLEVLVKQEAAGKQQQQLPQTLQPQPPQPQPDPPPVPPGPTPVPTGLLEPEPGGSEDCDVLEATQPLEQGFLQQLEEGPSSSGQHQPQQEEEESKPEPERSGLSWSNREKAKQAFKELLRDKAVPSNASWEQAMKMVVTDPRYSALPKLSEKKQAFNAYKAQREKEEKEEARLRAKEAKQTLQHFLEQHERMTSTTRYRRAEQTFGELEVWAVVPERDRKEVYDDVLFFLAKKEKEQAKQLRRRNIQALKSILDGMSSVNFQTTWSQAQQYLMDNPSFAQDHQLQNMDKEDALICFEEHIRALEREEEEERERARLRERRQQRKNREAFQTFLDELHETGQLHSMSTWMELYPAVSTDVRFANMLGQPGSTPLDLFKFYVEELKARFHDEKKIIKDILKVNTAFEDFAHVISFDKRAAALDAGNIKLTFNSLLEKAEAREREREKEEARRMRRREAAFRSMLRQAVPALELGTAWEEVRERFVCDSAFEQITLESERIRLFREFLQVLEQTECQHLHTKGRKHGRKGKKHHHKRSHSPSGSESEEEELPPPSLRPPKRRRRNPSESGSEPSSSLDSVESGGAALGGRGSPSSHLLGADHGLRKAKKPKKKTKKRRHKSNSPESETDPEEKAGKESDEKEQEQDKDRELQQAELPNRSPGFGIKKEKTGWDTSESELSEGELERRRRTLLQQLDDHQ
UniProt P52756: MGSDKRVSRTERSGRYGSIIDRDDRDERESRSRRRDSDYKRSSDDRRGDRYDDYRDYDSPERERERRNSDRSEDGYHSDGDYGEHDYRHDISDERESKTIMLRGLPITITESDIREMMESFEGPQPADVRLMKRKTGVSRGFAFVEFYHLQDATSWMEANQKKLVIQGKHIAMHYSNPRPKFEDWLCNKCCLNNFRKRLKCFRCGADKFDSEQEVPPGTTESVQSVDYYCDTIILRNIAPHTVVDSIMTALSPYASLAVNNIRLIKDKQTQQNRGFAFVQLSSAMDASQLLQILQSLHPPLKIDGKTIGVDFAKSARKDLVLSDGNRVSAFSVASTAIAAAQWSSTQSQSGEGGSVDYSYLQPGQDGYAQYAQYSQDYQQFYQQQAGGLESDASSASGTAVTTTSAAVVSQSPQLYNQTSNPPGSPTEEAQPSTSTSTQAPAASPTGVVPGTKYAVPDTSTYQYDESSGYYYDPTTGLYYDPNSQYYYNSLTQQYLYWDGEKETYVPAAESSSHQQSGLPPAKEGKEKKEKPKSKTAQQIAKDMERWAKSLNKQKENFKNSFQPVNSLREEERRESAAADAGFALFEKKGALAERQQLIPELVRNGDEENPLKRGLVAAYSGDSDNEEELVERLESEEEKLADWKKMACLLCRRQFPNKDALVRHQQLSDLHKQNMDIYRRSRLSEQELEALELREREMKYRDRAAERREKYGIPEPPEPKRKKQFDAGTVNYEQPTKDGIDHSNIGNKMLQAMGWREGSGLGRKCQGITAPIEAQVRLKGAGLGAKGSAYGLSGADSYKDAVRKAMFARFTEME
UniProt O15417: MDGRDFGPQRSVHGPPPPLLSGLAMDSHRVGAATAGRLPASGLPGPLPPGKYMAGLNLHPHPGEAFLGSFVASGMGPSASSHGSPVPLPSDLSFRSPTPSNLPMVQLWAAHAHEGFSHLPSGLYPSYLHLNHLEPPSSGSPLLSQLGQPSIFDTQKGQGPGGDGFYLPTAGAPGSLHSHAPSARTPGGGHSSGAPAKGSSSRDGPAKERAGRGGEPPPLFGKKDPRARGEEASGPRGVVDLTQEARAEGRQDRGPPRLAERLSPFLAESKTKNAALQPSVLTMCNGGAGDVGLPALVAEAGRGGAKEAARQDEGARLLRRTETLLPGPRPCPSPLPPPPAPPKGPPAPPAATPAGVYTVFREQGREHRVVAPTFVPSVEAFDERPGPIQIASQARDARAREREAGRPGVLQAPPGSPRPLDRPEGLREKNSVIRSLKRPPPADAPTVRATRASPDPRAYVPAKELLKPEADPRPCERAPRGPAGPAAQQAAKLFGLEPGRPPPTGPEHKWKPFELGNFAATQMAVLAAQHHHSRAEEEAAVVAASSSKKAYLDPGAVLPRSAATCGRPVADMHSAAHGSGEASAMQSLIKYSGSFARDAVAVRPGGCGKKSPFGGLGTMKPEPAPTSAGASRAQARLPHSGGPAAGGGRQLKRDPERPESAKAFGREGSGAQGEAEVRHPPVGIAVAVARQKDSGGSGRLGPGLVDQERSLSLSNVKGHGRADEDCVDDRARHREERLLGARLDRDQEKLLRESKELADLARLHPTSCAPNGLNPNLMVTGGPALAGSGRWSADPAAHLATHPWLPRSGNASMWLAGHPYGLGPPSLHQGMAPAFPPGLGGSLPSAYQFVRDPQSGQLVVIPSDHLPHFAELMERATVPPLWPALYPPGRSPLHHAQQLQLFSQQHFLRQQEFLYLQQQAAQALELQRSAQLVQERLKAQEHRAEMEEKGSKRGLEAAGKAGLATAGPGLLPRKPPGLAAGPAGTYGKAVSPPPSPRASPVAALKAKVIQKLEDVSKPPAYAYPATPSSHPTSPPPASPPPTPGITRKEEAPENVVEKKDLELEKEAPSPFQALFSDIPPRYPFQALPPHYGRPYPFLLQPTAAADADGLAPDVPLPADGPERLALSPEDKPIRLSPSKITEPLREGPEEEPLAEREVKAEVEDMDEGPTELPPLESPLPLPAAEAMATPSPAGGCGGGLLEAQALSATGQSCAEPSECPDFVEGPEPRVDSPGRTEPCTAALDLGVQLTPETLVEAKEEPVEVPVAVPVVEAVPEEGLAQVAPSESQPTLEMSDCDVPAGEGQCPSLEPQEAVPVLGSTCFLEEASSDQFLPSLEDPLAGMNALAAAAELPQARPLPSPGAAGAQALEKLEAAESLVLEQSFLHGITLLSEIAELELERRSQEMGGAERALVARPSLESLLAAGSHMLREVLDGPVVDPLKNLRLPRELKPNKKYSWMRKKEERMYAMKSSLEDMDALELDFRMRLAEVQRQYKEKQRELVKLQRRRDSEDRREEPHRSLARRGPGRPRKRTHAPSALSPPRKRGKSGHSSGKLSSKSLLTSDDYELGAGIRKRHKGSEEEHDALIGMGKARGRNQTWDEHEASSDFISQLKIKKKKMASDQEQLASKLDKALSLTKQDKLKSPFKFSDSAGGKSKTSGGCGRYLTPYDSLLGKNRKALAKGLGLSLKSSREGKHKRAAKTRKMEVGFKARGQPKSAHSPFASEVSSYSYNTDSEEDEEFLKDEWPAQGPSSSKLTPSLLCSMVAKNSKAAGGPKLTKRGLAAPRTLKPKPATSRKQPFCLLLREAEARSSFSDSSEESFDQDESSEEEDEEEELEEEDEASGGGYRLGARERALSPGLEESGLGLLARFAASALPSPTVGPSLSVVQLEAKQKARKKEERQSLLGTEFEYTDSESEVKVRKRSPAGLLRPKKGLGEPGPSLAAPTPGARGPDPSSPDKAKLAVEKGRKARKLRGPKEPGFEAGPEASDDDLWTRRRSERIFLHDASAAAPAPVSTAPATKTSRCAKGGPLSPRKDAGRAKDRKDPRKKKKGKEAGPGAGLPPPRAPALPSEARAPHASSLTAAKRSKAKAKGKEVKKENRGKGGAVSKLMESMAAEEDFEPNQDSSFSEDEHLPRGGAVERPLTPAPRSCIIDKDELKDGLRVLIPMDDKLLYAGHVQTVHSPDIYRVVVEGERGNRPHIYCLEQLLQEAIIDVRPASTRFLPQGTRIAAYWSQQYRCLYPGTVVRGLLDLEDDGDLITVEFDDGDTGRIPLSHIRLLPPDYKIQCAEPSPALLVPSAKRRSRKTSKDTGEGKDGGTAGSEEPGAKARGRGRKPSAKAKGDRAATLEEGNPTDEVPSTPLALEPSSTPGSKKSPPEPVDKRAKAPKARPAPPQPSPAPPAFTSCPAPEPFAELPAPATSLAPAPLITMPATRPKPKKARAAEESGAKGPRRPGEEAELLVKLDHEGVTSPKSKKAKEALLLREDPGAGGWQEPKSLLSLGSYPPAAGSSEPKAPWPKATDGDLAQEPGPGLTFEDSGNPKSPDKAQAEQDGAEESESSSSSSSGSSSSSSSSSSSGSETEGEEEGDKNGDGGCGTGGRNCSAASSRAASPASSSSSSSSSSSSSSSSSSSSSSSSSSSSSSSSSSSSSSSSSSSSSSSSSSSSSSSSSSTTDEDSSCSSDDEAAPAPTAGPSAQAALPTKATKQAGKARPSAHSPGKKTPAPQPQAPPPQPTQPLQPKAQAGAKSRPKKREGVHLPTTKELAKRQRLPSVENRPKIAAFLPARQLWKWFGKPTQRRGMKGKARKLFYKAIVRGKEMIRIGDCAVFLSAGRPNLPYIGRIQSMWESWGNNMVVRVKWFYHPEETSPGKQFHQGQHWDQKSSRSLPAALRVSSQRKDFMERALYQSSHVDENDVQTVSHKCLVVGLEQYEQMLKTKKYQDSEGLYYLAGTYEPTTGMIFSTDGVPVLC
UniProt P18848: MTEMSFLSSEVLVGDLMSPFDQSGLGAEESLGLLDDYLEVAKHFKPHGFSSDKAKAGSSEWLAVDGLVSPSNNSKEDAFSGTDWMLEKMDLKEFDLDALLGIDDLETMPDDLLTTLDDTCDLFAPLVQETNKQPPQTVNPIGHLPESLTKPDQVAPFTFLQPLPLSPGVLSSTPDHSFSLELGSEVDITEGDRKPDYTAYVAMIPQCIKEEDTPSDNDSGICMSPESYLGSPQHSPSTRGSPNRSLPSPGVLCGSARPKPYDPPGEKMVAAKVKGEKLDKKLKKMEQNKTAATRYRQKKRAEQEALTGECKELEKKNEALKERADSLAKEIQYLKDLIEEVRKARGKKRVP
UniProt P13202: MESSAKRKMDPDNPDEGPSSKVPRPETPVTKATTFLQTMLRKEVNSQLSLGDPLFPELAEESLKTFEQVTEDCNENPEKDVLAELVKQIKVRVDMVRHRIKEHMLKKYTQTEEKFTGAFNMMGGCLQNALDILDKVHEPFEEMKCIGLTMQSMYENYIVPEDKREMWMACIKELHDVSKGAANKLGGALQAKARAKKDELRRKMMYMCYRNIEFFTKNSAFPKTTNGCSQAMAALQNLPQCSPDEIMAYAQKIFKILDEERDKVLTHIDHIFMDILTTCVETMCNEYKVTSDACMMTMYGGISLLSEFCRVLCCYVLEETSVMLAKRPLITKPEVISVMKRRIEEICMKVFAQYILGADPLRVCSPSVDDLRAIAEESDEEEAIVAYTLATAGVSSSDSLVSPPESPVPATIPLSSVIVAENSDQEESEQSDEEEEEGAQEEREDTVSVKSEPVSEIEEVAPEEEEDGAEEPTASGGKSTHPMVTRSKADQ

Columns and labels:
[1] = target: PRP40 pre-mRNA processing factor 40 B (PRPF40B) (human) (UniProt Q6NWY9); assay: peptide or protein array; isolated IE1 incubated 1 h at room temperature with two 22 cm x 22 cm PVDF membranes (imaGenes Unipex_1, _2) presenting up to 7390 GST-tagged human proteins from crude E. coli extracts, each spotted in doublets; anti-IE1 antibody 24 h at 4 °C, HRP-coupled secondary antibody, enhanced chemiluminescence; cutoffs by the background index; only the binder purified
[2] = target: RNA binding motif protein 5 (human) (UniProt P52756); assay: peptide or protein array; only the binder purified
[3] = target: T1, Heterogeneous nuclear ribonucleoprotein F (HNRPF) (human) (UniProt P52597); assay: peptide or protein array; only the binder purified
T1 sequence: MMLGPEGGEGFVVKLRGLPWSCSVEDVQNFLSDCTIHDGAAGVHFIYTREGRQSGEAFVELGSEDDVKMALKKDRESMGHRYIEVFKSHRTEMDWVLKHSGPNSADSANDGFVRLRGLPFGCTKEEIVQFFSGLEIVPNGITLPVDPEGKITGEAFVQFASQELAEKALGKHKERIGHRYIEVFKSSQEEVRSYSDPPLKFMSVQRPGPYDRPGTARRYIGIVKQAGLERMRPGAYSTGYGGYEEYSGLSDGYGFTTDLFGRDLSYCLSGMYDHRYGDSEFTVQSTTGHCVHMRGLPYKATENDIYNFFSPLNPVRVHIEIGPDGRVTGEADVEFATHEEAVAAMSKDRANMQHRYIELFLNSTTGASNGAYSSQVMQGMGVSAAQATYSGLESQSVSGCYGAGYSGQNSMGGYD

[4] = target: KIAA1856 protein (KIAA1856) (human) (UniProt O15417); assay: peptide or protein array; only the binder purified
[5] = target: Activating transcription factor 4 (ATF4) (human) (UniProt P18848); assay: peptide or protein array; only the binder purified
[6] = target: Kinase non-catalytic C-lobe domain (KIND) containing 1 (KNDC1) (human) (UniProt Q76NI1); assay: peptide or protein array; only the binder purified
[7] = target: T2, Metastasis suppressor 1 (MTSS1) (human) (UniProt O43312); assay: peptide or protein array; only the binder purified
T2 sequence: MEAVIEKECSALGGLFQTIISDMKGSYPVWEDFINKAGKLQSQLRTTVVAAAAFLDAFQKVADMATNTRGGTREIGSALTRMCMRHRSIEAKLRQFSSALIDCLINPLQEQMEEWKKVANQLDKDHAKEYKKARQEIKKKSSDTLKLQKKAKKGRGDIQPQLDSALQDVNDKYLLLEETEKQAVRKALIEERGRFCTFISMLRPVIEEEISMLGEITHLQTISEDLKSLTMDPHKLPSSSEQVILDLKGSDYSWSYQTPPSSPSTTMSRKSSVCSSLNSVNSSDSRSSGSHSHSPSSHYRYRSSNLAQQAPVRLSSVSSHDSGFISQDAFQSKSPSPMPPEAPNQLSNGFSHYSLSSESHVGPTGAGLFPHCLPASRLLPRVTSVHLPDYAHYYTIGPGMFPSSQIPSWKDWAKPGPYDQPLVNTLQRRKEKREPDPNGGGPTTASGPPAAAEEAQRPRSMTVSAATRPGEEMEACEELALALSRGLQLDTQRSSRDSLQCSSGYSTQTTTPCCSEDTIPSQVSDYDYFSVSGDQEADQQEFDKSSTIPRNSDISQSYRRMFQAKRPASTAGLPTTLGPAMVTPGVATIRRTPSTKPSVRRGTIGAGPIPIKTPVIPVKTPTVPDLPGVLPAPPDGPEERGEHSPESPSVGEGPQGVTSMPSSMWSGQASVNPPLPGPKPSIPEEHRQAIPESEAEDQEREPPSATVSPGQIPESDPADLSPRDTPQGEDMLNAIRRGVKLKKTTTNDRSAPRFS

Measured: binding

Human cytomegalovirus immediate-early protein 1 (from UniProt P13202 1-491)
binds: all assays above
